From PubChem BioAssay AID1794845 (National Center for Advancing Translational Sciences (NCATS), 2023)
Among all 6,900 compounds or so, fewer than 10 were called active. Calls follow the shape of the dose curve; as a rule, active = well fitted curve in the direction sought with a large enough effect; inconclusive = small, poorly fitted or top-dose-only effect, or another doubt; inactive = no such curve, though single readings can be large or run the other way. The list shows a part of the results.

Amino acid sequences for entries named in this document (tags omitted). A change or cut given only in a name is not applied to a line headed by its entry.
UniProt C7C422: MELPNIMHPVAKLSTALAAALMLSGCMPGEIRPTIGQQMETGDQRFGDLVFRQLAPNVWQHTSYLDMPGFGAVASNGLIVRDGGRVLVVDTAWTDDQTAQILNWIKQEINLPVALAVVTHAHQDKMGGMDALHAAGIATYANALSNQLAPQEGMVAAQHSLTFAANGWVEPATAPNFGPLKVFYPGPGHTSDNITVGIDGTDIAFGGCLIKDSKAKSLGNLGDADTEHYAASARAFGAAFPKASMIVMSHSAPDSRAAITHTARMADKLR

The molecules below were run against Metallo-beta-lactamase type 2 (Klebsiella pneumoniae) (UniProt C7C422) (assay: qHTS to identify inhibitors of the New Delhi Metallo-beta-lactamase (NDM): primary screen against the NCATS Gemini Collection). Conditions: NDM-1 enzyme, meropenem hydrolysis, absorbance 300 nm; at 38.4 µM (top of the series) unless noted.
In short: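 NDM-1 at 2 nM final in 50 mM HEPES pH 7.0, 1 uM ZnSO4, 0.01% Tween20, preincubated >30 min with compound. Meropenem 50 uM final added; absorbance at 300 nm after 30 min.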
Also: % of control where 0% means no effect.

Activity % (negative = inhibition), inactive:
O=C(c1ccco1)N1CCCCC1c1nc(C2CC2)n[nH]1 (configuration not stated) -0.0418%, CC(C)C1=NOC2(CCN([S+](=O)([O-])c3cccs3)C2)C1 (configuration not stated) 5.1%, CCC(CC)C(=O)NC[C@H]1O[C@@H](CC(=O)N2CCC(C)CC2)[C@H](O)[C@@H]1O 9.85% [at 57.5 µM], O=C(C[C@@H]1CCNC[C@@H]1Cc1cc(CN2CCCCC2)on1)NCc1cccs1 -0.0675% [at 57.5 µM], CN(C)c1nc(-c2ccccc2)nc2c1CCN(C(=O)C1CCOC1)C2 (configuration not stated) 9.83%, O=C(CCc1conc1-c1ccccc1F)NCc1cccc(C(F)(F)F)c1 -7.72%, COCCCN(CCC(=O)NCc1ccc2c(c1)OCO2)C(=O)c1cc(C)oc1C -9.84%, CN1CCCCCCN(C(=O)Cc2c[nH]c3ccccc23)[C@H]2CCC[C@H]2C1=O 2.1%, CCN1C(=O)C2CC3(CCN(S(C)(=O)=O)CC3)CN2C1=O (configuration not stated) 21.2%, CCc1nnc(CN(CC)C(=O)c2cc(S(N)(=O)=O)ccc2F)o1 -0.28%, CCCc1nc(C(=O)NC(CC)c2ccc(S(C)(=O)=O)cc2)cs1 (configuration not stated) 12.4%, COc1ccc(O[C@H]2COCCN(S(=O)(=O)c3ccc(OC)cc3)C2)cc1 31.3% [at 57.5 µM], Cn1ccnc1-c1ccc(N2CC[C@@]3(O)CCN(S(C)(=O)=O)C[C@H]3C2)nn1 -3.73%, N#Cc1ccc(C(=O)N2CCC(Cc3nc(-c4cccnc4)n[nH]3)C2)cc1 (configuration not stated) 3.07%, Cc1cnc(CCNS(=O)(=O)c2cn(C)cn2)n1C1CCC1 29.9%, CCc1ccccc1NC(=O)N1CCC(Oc2ncccc2NC)C1 (configuration not stated) 21.4%, O=C(NC1CCN(c2nnc3ccccn23)CC1)c1ccc(Cl)s1 5.1%, COCCCNC(=O)c1cnc2c(c1)N(C(=O)Cc1cn(C)c3ccccc13)CCC2 13.8% [at 57.5 µM], c1ccc(Cn2cc(CN3CCN(c4ccncc4)CC3)c(-c3cc4ccccc4o3)n2)cc1 0.373%, CCOc1cccc(CNC(=O)c2nnn3c2COC(c2ccc(C)cc2)C3)c1 (configuration not stated) 8.52%, COCCc1noc(C2Cc3ccccc3N2C(=O)Nc2ccc3c(c2)OCCO3)n1 (configuration not stated) 20.3%, COCCNC(=O)C[C@@H]1C[C@H]2O[C@H](CNCc3cccnc3OC)[C@@H](O)[C@H]2O1 -1.12% [at 57.5 µM], N#CCn1ccn2nc3c(c2c1=O)CCCC3 9.39%, NC(=O)c1ccc(NC(=O)Cn2nc3c(cc2=O)CCCCC3)cc1 13.9%, O=C(c1ccc(C2CCCNC2)cc1)N1CCN(c2ccncc2)CC1 (configuration not stated) 9.99%, O=C1NCCCCCN(C(=O)C2CCC2)[C@H]2CCCC[C@@H]12 -6.09%, O=C(Cc1cc2c(cc1Cl)OCCO2)N[C@@H]1COCC[C@@H]1OCC1CC1 2.65%, CCOC(=O)C1CCN(C(=O)c2cn3ccnc(-c4ccc(C)cc4)c3n2)CC1 17.4%, NC(=O)CN1CCC(C(=O)N2CCCC(CO)(CC3CC3)C2)CC1 (configuration not stated) 10.6%, Cc1cc2c(cc1C(=O)N[C@H](c1ccccn1)C1CC(O)C1)OCCO2 (some centres not stated) 7.26%, CCOc1cc(CN2CCC(C(Cc3ccccc3F)N(C)C(=O)c3cccs3)CC2)ccc1O (configuration not stated) 4.72%, O=C(NC1CCCC1)N1CCC(Cc2nncn2CC2CC2)CC1 15.5%, O=C(C1CCOCC1)N1CCC(c2nc(C3CCOCC3)no2)CC1 -3%, c1ccc(-c2nc(CC3CCCNC3)no2)nc1 (configuration not stated) 96.4%, C#CCNC(=O)C1CCc2nnc(CNC(=O)c3ccc(Cl)cc3Cl)n21 (configuration not stated) 1.33%, Cc1cnc(C(=O)N(C)C2CCc3nn(CC4CC4)c(=O)n3CC2)cn1 (configuration not stated) 7.74%, Cc1nc(C(C)C)ncc1C(=O)N1CCC2(CCCN(C)C2=O)C1 (configuration not stated) -1.74%, Cc1cc(=O)n(CC(=O)NC(C)CCc2ccccc2)c(N2CCc3ccccc3C2)n1 (configuration not stated) 1.39%, CC1=NOC2(CCN([S+](=O)([O-])c3c(C)noc3C)C2)C1 (configuration not stated) 12.5% [at 57.5 µM], CNC(=O)[C@@H]1CN(C(=O)CCc2ccc(OC)c(OC)c2)C[C@H]1CO 9.06%, CCCCCCN(CCC(=O)NCCc1ccccc1)C(=O)c1cc(C)oc1C 2.34%, CC(C(=O)N1CCN(c2cc(-c3ccccc3)[nH]n2)CC1)c1ccccc1 (configuration not stated) -7.08%, COCCCn1c(=O)c(C(=O)NC2CC2)nc2cccnc21 12% [at 57.5 µM], CNC(=O)[C@@H]1CN(C(=O)c2ccc(OC)cc2C)C[C@H]1COC -3.86%, CS(=O)(=O)Cc1ccc(-c2cccc(OCc3ccccc3F)c2)nc1 46.1%, CCN(CC)c1cc(CCC(=O)N2CCN(c3cccc(OC)c3)CC2)ccn1 14.2%, CCNc1ncnc2sc3c(c12)CCN(Cc1ccncc1)C3 12%, CCCn1cc(-c2ccnc(NC3CCN(Cc4cccnc4)CC3)n2)c(C)n1 -1.13%, CN(CCC1CCOCC1)C(=O)c1ccc(OC2CCN(C(=O)C3CC3)CC2)cc1 7.72%, O=S(=O)(Cc1ccccc1)N[C@H]1CO[C@H]2[C@@H]1OC[C@@H]2Nc1nccc(-c2cccc(F)c2)n1 -0.0409%, Fc1ccc(-c2noc([C@@H]3Cc4nc[nH]c4CN3CCCc3ccccc3)n2)cc1Cl 3.38%, Cc1nc(N2CCC(C(=O)NCC3CCCO3)CC2)cc(C(F)(F)F)n1 (configuration not stated) 13.6%, CC(=O)Nc1ccc2c(c1)S(=O)(=O)N=C(CC(C)C)N2CC(C)C 17.7%, CCOC(=O)C(Cc1cccc(N2CCC(Nc3ccccc3)CC2)c1F)OC (configuration not stated) 0.468%, O=C(c1cccs1)N1CCCC(Cc2noc(-c3cnccn3)n2)C1 (configuration not stated) 0.91%, O=C(Cc1ccncc1)N1CC(F)(F)C[C@H]1c1nc(C2CC2)no1 -2.37%, O=C(Nc1ccccc1F)C1CCCN(Cc2cccc(-c3cccs3)c2)C1 (configuration not stated) 1.32%, CN(C)S(=O)(=O)N1CCC2(CCC(=O)N(CC3CC3)CC2)CC1 1.44%, CC(C)c1nc2ccccc2n1CC(=O)N1CC[C@](C)(O)[C@@H](O)C1 -2.4%, COc1ccccc1/C=C/CN1CCC(n2cc(CN(C)C)nn2)CC1 27.5%, CCn1c(CN2CCN(c3nc4ccccc4s3)CC2)nnc1C1CC(N)C1 (configuration not stated) -5.98%, Clc1cc(NCc2ccccc2Cl)n2nccc2n1 8.04% [at 57.5 µM], O=c1c2nc(-c3ccsc3)ccc2ncn1-c1ccccc1 37.2% [at 57.5 µM], CCn1cc(S(=O)(=O)N2CCC[C@H]2c2nc(-c3ccc(F)cc3)n[nH]2)cn1 3.87%, Cc1noc([C@@H]2CN(C3CCCCCC3)C[C@H]2CO)n1 -1.35%, O=C(c1cscn1)N1CCC2(CCCN(CCC3CCCCC3)C2=O)C1 (configuration not stated) 0.914%, Fc1ccc(-c2cccc(CN3CCOCC3)c2)c(Cl)c1 15.7%, COc1cccc(-c2nc3cc4c(cc3cc2CN2CCOCC2)OCO4)c1OC 48.5%, COc1cc(=O)n2c(c1C(=O)NCc1ccccc1Cl)CCCC2 14.2%, COc1ncccc1-c1cc2c(ccn2CC2CCN([S+](C)(=O)[O-])CC2)c(N2CCOCC2)n1 4.08%, Cn1cc(CN2CCCCCNC(=O)[C@@H]3CCC[C@@H]32)c2ccccc21 -0.919%, Cc1cnc(CC2CCN(C(=O)Cc3cccc(F)c3)CC2)n1CC1CC1 -14.5%, CCOCCn1nc(C)cc1C(=O)N[C@H]1[C@H]2CCO[C@H]2[C@@H]1N(C)C -0.113%, COCc1noc(CCNc2nc(C)nc3c2cnn3C)n1 13.4%, COCCN1C(=O)N(CCCc2cccnc2)C(=O)C12CCN(C/C=C/c1ccc(OC)cc1)CC2 0.0147%, COc1ccccc1NC(=O)N1CCCC2(CCC(=O)N(CC3CC3)C2)C1 (configuration not stated) 15.3%, Cc1cc(C)c2nonc2c1S(=O)(=O)N1C[C@@H](N(C)C)[C@H](C(C)C)C1 -0.543%, CCn1nccc1C(=O)N1CC[C@H](n2c(=O)n(C)c3cccnc32)C1 18.1%, CCC(C)(C)NC(=O)c1cccc2c1CCN2C(=O)Nc1ccc(C)cc1 8.42%, Cc1cnc(-c2cccnc2)n1CC1CCN(S(=O)(=O)c2ccccc2)CC1 1.81%, Cc1nc(CCNS(=O)(=O)c2c(C)nn(C)c2C)no1 -8.42%, Cc1nc(C(=O)NC2CC(c3cc(N4CCC(O)C4)ncn3)C2)cs1 (configuration not stated) 0.894%, C[C@]1(CO)[C@H]2Cc3sc(NC(=O)c4ccc(F)cc4)nc3[C@@H](CC(=O)NCc3ccccc3)[C@]2(C)CC[C@H]1O 29.3%, COc1ccc(C(=O)NCCc2ncc(C)n2C2CC2)cn1 -3.69%, N#Cc1cccc(C(=O)N2C[C@@H](Oc3cccnc3)C[C@H]2C(=O)NC2CC2)c1 -0.49%, Cc1cccnc1C(=O)N[C@@H]1CN(S(C)(=O)=O)C[C@H]1CN(C)C 14%, O=C1NC(=NC2CCCCC2)C2(CCN(Cc3ccccc3)C2)N1c1cccnc1 (configuration not stated) 12%
